Test results from patent publication US20250011330A1, “Imidazo[1,2- a]pyrazine and Imidazo[1,2- a]pyridine Based Tyrosyl-DNA Phosphodiesterase I (TDP1) Inhibitors” (The USA, As Represented by the Secretary, Department of …, priority 2021, published 2025).
At least one structure is not confirmed: it was looked up by name or label, or the drawing left a doubt.

Test system: human colon cancer cell line HCT116
Assay: Synergistic effect with camptothecin (CPT) based on cell viability
Settings: list in description
Method: The synergistic effects of the TDP1 inhibitors with CPT were tested in human colon cancer cell line HCT116 based on cell viability (Table 3, FIGS. 2-5). Cells were first seeded in a 384-well black-clear plate until 30% confluency and then incubated with a serial dilution of CPT at the range of 0-100 nM in the present or the absence of TDP1 inhibitors for 72 h at 37° C. Viable cell numbers were counted from the brightfield images taken by Biotek Cytation 5 (FIGS. 2-3). Fractional affect (Fa) and combination index (Ci) were analyzed with CompuSyn software. Synergistic scores of each TDP1 inhibitors were calculated and collected based on the data analysis from SynergyFinder (FIG. 4). […]

Q: With `CS(=O)(=O)c1ccc2nc(-c3ccccc3)c(Nc3ccc(C(=O)O)cc3)n2c1` [Compound 8q, 4-((6-(Methylsulfonyl)-2-phenylimidazo[1,2-a]pyridin-3-yl)amino)benzoic acid] as the compound, how does the synergy with camptothecin read?
A: exhibit synergy with camptothecin
